Test: peptide synthesis

Substance	step yield (late stage modification step)	step yield (coupling step)
Gly-Gly-Gly-Gly-Leu[SEQ ID NO: 1]-Hydrocodone	97%	
Boc-Gly-Gly-Gly-Gly-Leu[SEQ ID NO: 1]-Hydrocodone		37%

— patent US7375083B2 (Shire LLC, priority 2003, dated 2008)
